Over roughly 33,000 sequences, “E-score (-0.5 to 0.5)” has its median near -0.0014; the highest 2% begin near 0.25. The list shows a part of the results.
These sequences were tested against T1, Cad1 (UniProt P24813) (assay: PBM E-score (8-mer binding enrichment) (E-score (-0.5 to 0.5)); higher = stronger / more preferred TF binding). Conditions: protein concentration: 100 nM; construct: GST-full length.
T1 sequence: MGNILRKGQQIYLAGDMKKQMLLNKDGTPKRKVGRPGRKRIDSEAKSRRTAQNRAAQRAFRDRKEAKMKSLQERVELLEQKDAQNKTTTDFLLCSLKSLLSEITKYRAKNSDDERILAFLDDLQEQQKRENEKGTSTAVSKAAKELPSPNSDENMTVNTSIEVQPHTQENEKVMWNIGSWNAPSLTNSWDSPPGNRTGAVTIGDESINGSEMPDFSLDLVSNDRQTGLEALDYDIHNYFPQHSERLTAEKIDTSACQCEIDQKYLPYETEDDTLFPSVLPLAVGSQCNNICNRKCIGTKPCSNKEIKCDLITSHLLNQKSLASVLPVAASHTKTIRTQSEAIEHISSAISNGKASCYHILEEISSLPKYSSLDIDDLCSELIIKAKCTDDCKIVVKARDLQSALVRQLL
How it was run: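 Yeast transcription factors, full-length or as DNA-binding domains, were expressed with a GST tag using PURExpress in vitro transcription/translation. At about 100-200 nM they were applied to universal all-10-mer Agilent arrays, double-stranded by primer extension on fresh or once-stripped slides. Fluorescent anti-GST detected bound protein, and masliner normalised the scans. E-scores for ungapped eight-base words, pooled with reverse complements, came from the Universal PBM Analysis Suite.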

Row | Sequence | PBM E-score
1 | CCCCCCGA | -0.47
2 | ATGCGGGC | -0.103
3 | CGGTGTTA | -0.0163
4 | ACATCAGT | 0.122
5 | CAAGAAAC | 0.0259
6 | ATGCACGC | 0.0656
7 | CGTACAAC | -0.0151
8 | TCCTACAA | -0.0246
9 | AGTCGCAG | -0.0471
10 | TGCCCACA | -0.221
11 | GCCCCGTA | -0.177
12 | CAACCCAA | -0.17
13 | GGCCACTA | -0.0002
14 | ACCAGGCT | -0.197
15 | GGTTGGAA | -0.0209
16 | ACGTTGTC | -0.00465
17 | CGAGACAG | -0.0432
18 | ATGAGTAG | 0.0743
19 | AAGCACGC | 0.0654
20 | GAAAGTTA | 0.0648
21 | CATGAGCG | 0.0942
22 | GCCCTAGA | -0.311
23 | GACCTATC | -0.0167
24 | AATAAACT | 0.12
25 | AATTTGAT | 0.0957

Row | Sequence | PBM E-score
26 | CGTCGCTC | -0.0127
27 | GGGCCCAC | -0.0728
28 | ACCGCTCA | 0.00784
29 | ATTTCGAC | -0.0837
30 | GCAACAGC | -0.076
31 | CGGGAGTA | 0.0466
32 | ACTCGGAA | 0.126
33 | TATCGGCA | 0.00129
34 | CCCCAATC | -0.109
35 | TTCAGCAA | 0.0539
36 | ACAACCGC | 0.135
37 | CGGATAAG | 0.0425
38 | CGTGGCCC | -0.0558
39 | AATCTCGA | 0.123
40 | ACCATATA | 0.144
41 | GGGGTGCA | -0.216
42 | CGACTGCG | -0.0765
43 | GTCATGAC | 0.288
44 | ACCCTAGT | -0.147
45 | CGAAACAA | 0.195
46 | ACCAAATG | 0.0613
47 | GCAATCCA | 0.0441
48 | GAAACTCA | 0.123
49 | AAGAGCGA | -0.231
50 | CCTCCTCA | -0.235

Fetched one by one from above (6):
Row | Sequence | PBM E-score
7 | CGTACAAC | -0.0151
34 | CCCCAATC | -0.109
26 | CGTCGCTC | -0.0127
35 | TTCAGCAA | 0.0539
42 | CGACTGCG | -0.0765
31 | CGGGAGTA | 0.0466

Remaining list, next part

Row | Sequence | PBM E-score
51 | AACTGAGT | 0.148
52 | TCCAGACA | -0.0833
53 | GACTTGTA | -0.0735
54 | AGCCCAGG | -0.269
55 | GAGACGCC | -0.128
56 | GTAACTCA | -0.129
57 | AGACACGC | -0.182
58 | AATGGTAT | 0.109
59 | CTACCTCC | -0.157
60 | AAGGAGGG | -0.0877
61 | CAAACGGA | -0.0795
62 | ACACTGCG | 0.0497
63 | ACTGCCCT | -0.0853
64 | ACCCATAC | 0.00827
65 | AAAAAGGC | 0.0352
66 | AAAGTGCA | 0.00528
67 | ACATAGAT | 0.0106
68 | CGCGGCGC | 0.174
69 | ATCGCTGA | 0.128
70 | CAAGAGAC | -0.0144
71 | CCCCACAC | -0.104
72 | CCCCTTTC | -0.157
73 | TCACCGGA | -0.0337
74 | GGAGAAAC | -0.122
75 | ATGTGATG | -0.00561

Individual results from above.
For PBM E-score, AAAGTGCA shows 0.00528
For PBM E-score, GTAACTCA shows -0.129
For PBM E-score, AGACACGC shows -0.182

Later entries.

Row | Sequence | PBM E-score
76 | ATCAAAGC | 0.0843
77 | TCGGCCGA | 0.173
78 | TAGCTACA | 0.129
79 | TAGCGAAA | 0.0641
80 | ACAGCTGT | 0.261
81 | AACACAGA | 0.19
82 | GAATTAAC | 0.0768
83 | CAGTAGAC | -0.143
84 | GGTGGTTA | -0.0875
85 | CTGGTTGC | 0.221
86 | CACGGCGC | 0.0653
87 | ACGGCTAT | -0.0988
88 | CCGTTGTC | 0.172
89 | AAAATTGG | 0.0189
90 | GGGCTCGA | -0.195
91 | TAGTCACA | 0.102
92 | CTAAGGAG | -0.138
93 | CCCGTATC | -0.15
94 | GCCGGAAA | 0.156
95 | GAGCCTCA | -0.127
96 | GGTTGCAC | 0.0639
97 | AGCTGGCC | -0.0868
98 | GATAGGGC | -0.0803
99 | GCGATTTA | 0.156
100 | AAAGGAAT | -0.126

Row | Sequence | PBM E-score
101 | CATCCTAC | -0.171
102 | AGCCACTG | -0.0671
103 | GAATCTAA | 0.159
104 | CCCCCGAA | -0.307
105 | CCTCTCTA | -0.306
106 | CTCTTGTA | -0.174
107 | GGCACGGA | 0.00063
108 | CTCCATAC | -0.104
109 | ACACTAGG | -0.0208
110 | GACGCTTA | 0.0345
111 | AAAACCAC | -0.106
112 | GCGCGTGA | 0.202
113 | GGGTACAC | -0.139
114 | CCCAAGCA | -0.107
115 | CATACAGC | -0.078
116 | GAAGCTCC | -0.0686
117 | GCCACGGC | -0.0123
118 | AGTCGTAA | -0.0181
119 | GGGAGCAA | -0.244
120 | GCTCCAGC | -0.109
121 | ATGAGCTC | -0.0302
122 | CAATACTC | 0.126
123 | CGATGGGC | -0.0192
124 | CTCTGTTC | -0.0927
125 | CTAGAAAA | -0.0993

Row | Sequence | PBM E-score
126 | CACGCGGC | 0.0714
127 | GGTAAAAA | 0.203
128 | GCTAAAGA | 0.155
129 | TATCCAAA | 0.248
130 | TCTGATAA | -0.0338
131 | AAGGACAC | -0.123
132 | ACTGTCGC | -0.0989
133 | GTGCCTCA | -0.376
134 | GGTGGAAA | -0.106
135 | CACAAAGA | 0.028
136 | GGCTTCGA | 0.0167
137 | GATTCCAC | 0.0593
138 | AGGACCAC | -0.0559
139 | ACGTAGAT | 0.14
140 | GTCCTTTA | -0.157
141 | ACCTCGTC | 0.0714
142 | GGCGGGAC | -0.023
143 | CGCGCCAG | 0.0872
144 | AAAGATTC | 0.108
145 | AAGGTGAC | -0.00908
146 | GTCGCAAC | 0.017
147 | CTAACATA | 0.148
148 | GGATAATA | 0.113
149 | AGAACGAG | 0.0921
150 | TCCAGGCA | 0.101

Row | Sequence | PBM E-score
151 | CGATGTCA | 0.00762
152 | AACGCTAG | -0.178
153 | CCATCATC | -0.0155
154 | ACGTCTCT | -0.0622
155 | CGTCCAAC | -0.0761
156 | ACCGCGTG | 0.0838
157 | CTAGGCTC | -0.239
158 | ATATATAT | 0.295
159 | GCTCACAA | 0.205
160 | ATATCAAC | 0.253
161 | AAATATCT | 0.114
162 | CAGCATGA | -0.0607
163 | ACCGGGTA | -0.0141
164 | AAGACACA | -0.109
165 | GTCCCGAA | -0.128
166 | ATAGTATG | 0.074
167 | ATAACCTC | 0.0774
168 | CAGTGTAG | 0.0795
169 | ACTTACGA | 0.184
170 | AGGGTGGA | -0.0446
171 | CGGGAAGC | -0.0112
172 | GGAACTAC | -0.0515

Source: the supplement of paper PMC3334620
